Assay results: article PMC4936677
No constants are given. Whether binding was seen depends on the method and setting. Binding seen in cells or lysates may run through a third protein. Some entries that bind do so weakly or less than the wild type.

By UniProt entry, the sequences of proteins in these tests, tags left out.
UniProt O43474: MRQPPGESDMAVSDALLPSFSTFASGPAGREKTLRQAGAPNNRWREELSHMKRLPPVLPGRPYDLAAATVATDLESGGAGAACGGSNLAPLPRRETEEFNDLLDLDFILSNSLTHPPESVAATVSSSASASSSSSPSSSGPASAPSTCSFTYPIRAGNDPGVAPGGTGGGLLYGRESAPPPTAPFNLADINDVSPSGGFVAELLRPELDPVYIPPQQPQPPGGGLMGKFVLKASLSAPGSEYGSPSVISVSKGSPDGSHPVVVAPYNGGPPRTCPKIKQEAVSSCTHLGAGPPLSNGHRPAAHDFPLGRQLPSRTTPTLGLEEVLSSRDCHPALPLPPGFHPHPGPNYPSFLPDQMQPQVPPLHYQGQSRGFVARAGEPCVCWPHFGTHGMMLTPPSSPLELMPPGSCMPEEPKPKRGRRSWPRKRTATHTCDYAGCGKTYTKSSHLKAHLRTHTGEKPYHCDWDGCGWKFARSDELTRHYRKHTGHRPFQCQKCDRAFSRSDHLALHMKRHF
UniProt O75626: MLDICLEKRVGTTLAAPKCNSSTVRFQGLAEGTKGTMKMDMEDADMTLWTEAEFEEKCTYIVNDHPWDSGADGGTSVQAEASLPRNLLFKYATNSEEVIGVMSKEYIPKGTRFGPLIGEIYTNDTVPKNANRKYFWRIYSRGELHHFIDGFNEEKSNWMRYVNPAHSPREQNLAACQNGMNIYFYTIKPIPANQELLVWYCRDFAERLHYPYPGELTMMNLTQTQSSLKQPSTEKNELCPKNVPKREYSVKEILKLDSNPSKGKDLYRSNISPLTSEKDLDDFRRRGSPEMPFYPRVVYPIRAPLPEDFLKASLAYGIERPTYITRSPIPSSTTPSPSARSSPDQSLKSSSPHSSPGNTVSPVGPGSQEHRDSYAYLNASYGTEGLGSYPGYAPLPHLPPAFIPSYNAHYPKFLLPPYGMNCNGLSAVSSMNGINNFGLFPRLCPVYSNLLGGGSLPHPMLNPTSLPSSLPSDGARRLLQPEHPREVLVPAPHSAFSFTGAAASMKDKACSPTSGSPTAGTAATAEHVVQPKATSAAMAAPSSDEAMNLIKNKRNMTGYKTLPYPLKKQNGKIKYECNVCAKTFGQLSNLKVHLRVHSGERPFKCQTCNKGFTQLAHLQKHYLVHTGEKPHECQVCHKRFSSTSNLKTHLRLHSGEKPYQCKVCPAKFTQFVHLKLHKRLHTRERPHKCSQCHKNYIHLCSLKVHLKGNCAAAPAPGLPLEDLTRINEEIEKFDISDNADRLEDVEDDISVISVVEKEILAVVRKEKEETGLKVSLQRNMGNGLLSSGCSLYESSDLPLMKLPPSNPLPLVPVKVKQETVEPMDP

Molecular target: KLF4 (human (endogenous in HFKs and HFK-31gen cells)) (UniProt O43474)
Experiment: co-IP; lysates of differentiated HFKs and HFK-31gen cells in RIPA buffer with SDS and protease, phosphatase and desumoylation inhibitors; 200 ug protein precipitated overnight with KLF4 antibody (SC-393462) and protein A/G agarose beads, three washes with RIPA buffer; western blot for Blimp1

In the case of Blimp1 (from UniProt O75626 1-825), the binding is reported as “binds”.
